{
  "source": "PubChem BioAssay AID218",
  "about": "(DTP/NCI, 2004)",
  "test_system": "C57BL/6 mice, Adenocarcinoma 755 sc, tumor weight T/C",
  "assay": "NCI In Vivo Anticancer Drug Screen. Data for tumor model Adenocarcinoma 755 (subcutaneous) in C57BL/6 mice",
  "conditions": "T/C endpoint: mean tumor weight, schedule: Q01DX011 (ip), vehicle: saline, evaluation day not shown, higher T/C = larger tumour",
  "method": "The antitumor activity of compounds was measured in mice bearing transplantable tumors. Survival or tumor size were measured and the results are expressed as the measurement made in the treated group (T) divided by the measurement made in the vehicle treated control group (C). The tumor model used in this assay is Adenocarcinoma 755 (subcutaneous) in C57BL/6 mice",
  "note": "The list is a part of this screen's results and no random one: it covers a few groups of compounds. Not every dose and run of a compound is shown. T/C is the treated group as % of the vehicle group. Some T/C values are marked as having no survivor count here; that says nothing about deaths at the dose. Schedule codes are those of the source, read here as Q, the interval in days (D) or hours (H), X, the number of doses.",
  "data": [
    {"smiles": "FCCNCCCl", "values": [
      {"measurement": "T/C", "setting": "dose: 1.0 mg/kg/injection", "result": "76 % of control [survivor count not shown]"},
      {"measurement": "T/C", "setting": "dose: 2.0 mg/kg/injection", "result": "66 % of control [survivor count not shown]"},
      {"measurement": "T/C", "setting": "dose: 4.0 mg/kg/injection", "result": "87 % of control [survivor count not shown]"},
      {"measurement": "T/C", "setting": "dose: 8.0 mg/kg/injection", "result": "66 % of control [survivor count not shown]"}
    ]}
  ]
}
